Test results reported in paper PMC9763329, “Targeting the transcription factor HES1 by L-menthol restores protein phosphatase 6 in keratinocytes in models of psoriasis” (Nature Communications, 2022).

The chains behind the UniProt entries cited, without tags or fusion partners.
UniProt O14965: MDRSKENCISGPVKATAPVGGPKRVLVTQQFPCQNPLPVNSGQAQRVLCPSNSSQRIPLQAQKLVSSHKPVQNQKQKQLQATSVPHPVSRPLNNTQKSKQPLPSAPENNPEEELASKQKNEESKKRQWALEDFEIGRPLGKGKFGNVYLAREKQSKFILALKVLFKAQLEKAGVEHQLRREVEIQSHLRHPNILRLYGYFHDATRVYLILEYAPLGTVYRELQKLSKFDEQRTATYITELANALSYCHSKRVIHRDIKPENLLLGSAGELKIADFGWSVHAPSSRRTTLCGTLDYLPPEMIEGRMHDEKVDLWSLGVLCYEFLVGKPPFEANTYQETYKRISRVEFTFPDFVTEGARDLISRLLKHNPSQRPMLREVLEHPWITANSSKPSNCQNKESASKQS
UniProt Q01105: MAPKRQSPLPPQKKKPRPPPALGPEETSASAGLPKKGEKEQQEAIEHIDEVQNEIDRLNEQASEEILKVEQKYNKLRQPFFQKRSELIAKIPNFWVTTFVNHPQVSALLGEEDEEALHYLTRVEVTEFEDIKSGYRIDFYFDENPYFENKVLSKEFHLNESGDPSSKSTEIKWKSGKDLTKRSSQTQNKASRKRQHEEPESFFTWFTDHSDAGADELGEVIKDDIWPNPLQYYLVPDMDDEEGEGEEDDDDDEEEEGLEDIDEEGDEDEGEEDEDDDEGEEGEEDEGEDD

T1: Protein phosphatase 6 (PP6), overexpressed in HaCaT cells (UniProt O00743)
T1 sequence: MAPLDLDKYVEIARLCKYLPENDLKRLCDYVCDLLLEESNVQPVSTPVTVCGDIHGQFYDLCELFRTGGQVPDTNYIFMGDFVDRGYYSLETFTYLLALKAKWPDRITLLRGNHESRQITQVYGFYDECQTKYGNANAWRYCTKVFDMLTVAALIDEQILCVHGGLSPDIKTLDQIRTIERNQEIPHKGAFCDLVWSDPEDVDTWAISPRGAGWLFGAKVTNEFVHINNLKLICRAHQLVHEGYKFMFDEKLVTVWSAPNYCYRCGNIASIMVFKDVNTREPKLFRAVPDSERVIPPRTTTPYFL

B1: immunoglobulin-binding protein 1 (IGBP1) (protein, UniProt P78318 1-339)
chain: MAAEDELQLPRLPELFETGRQLLDEVEVATEPAGSRIVQEKVFKGLDLLEKAAEMLSQLDLFSRNEDLEEIASTDLKYLLVPAFQGALTMKQVNPSKRLDHLQRAREHFINYLTQCHCYHVAEFELPKTMNNSAENHTANSSMAYPSLVAMASQRQAKIQRYKQKKELEHRLSAMKSAVESGQADDERVREYYLLHLQRWIDISLEEIESIDQEIKILRERDSSREASTSNSSRQERPPVKPFILTRNMAQAKVFGAGYPSLPTMTVSDWYEQHRKYGALPDQGIAKAAPEEFRKAAQQQEEQEEKEEEDDEQTLHRAREWDDWKDTHPRGYGNRQNMG

Molecular target: T1, Protein phosphatase 6 (PP6), overexpressed in HaCaT cells
Assay: affinity purification with mass spectrometry; lysates of PP6-overexpressing HaCaT cells (with or without 10 uM L-menthol, in the presence of 1 ug/ml R848) incubated with anti-PPP6C or rabbit IgG overnight at 4 C, protein A/G magnetic beads; precipitates analysed by mass spectrometry, hits picked with GeneMANIA analysis

binding	Molecule
binds	AURKA (from UniProt O14965 1-403) (enzyme)
binds	SET (from UniProt Q01105 1-290)
binds	B1

Results are given in words; binding and its absence hold for the method and conditions named. Binding seen in cells or lysates may run through a third protein. These calls come from enrichment with a bait or labelling near it, and not all partners need be listed.
